## Percent effect of library compounds

Chains of the proteins cited; added tags and fusions are not shown.
UniProt P9WPC5, whole entry: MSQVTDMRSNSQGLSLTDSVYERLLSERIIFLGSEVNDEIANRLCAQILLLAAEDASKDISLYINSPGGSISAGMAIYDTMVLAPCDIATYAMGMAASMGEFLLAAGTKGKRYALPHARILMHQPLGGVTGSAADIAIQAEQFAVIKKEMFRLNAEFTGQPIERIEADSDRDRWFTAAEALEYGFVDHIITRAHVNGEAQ
UniProt P9WPC3, whole entry partner: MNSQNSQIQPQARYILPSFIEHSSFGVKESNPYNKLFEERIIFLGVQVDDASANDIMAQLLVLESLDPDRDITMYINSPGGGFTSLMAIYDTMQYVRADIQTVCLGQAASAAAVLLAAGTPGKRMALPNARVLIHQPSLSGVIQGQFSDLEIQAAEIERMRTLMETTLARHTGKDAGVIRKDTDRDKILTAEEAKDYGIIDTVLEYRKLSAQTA
UniProt I6X8D2, whole entry: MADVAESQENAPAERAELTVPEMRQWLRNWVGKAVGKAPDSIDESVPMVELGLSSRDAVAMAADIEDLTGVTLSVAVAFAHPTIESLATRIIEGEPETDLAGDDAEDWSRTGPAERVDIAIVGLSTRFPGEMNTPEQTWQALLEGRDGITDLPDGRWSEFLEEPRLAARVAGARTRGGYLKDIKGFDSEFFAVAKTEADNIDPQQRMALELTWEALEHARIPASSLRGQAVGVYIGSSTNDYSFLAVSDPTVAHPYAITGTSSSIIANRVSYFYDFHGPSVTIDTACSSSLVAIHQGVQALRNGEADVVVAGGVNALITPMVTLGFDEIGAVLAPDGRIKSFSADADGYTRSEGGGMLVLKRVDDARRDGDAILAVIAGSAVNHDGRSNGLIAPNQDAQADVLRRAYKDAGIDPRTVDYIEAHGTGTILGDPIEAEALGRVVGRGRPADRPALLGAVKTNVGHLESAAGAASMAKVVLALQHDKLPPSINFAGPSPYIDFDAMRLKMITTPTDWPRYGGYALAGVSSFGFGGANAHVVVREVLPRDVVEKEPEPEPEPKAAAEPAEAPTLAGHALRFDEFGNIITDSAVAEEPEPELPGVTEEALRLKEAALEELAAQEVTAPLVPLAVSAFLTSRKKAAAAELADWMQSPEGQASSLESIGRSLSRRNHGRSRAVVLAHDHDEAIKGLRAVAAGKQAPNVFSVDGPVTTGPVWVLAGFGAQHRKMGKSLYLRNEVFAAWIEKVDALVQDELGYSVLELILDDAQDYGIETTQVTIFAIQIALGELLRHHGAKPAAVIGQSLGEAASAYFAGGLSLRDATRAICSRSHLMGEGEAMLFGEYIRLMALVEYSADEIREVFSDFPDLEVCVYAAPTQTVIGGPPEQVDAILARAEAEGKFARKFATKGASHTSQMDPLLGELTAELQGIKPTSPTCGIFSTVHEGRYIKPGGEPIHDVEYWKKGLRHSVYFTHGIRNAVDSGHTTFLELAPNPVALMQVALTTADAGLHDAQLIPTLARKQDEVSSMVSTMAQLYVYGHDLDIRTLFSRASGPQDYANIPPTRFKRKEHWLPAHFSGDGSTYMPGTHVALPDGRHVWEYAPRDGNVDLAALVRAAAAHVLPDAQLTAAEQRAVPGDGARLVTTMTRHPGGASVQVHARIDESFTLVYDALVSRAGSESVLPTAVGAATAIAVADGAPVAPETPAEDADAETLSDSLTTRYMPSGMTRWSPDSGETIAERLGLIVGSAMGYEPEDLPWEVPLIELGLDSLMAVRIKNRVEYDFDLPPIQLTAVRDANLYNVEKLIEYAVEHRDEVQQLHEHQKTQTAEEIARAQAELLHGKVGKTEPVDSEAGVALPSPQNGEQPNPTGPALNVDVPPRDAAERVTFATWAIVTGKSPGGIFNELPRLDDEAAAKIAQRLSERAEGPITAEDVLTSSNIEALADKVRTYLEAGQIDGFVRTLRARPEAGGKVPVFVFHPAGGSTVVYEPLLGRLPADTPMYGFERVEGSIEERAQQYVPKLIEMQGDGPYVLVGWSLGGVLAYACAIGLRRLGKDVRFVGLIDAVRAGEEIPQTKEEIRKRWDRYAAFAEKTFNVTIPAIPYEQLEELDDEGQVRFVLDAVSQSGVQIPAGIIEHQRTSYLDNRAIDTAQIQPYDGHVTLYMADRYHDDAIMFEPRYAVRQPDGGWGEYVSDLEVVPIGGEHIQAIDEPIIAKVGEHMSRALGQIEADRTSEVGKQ

The values are deposited in ChEMBL (CHEMBL3988442, “University of Dundee, Small-Polar-MMV Screening Library” (2021)).

Each number is a percent effect as filed. How 0% and 100% were set is not recorded. Most values in the screen are low, and negative values occur. Compounds were drawn at random from those tested, without regard to their results. A dash means the value is not listed here; it may have been measured.

A: 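Protease assay of ClpP1P2, read by the AMC dye that it sets free. Target: ClpP1P2, Mycobacterium tuberculosis (UniProt P9WPC5 and UniProt P9WPC3). Tested at 50 µM. Direction is inferred from only a few compounds that gave an IC50; most scored high, so higher reads as stronger inhibition. Most other retested compounds had strongly negative values. About 69,000 compounds were tested under these conditions; 0.015% (about 10) showed 50% or more at least once.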
B: 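Enzyme assay of the thioesterase domain of polyketide synthase 13; the read-out is not stated. Target: Polyketide synthase Pks13, Mycobacterium tuberculosis (UniProt I6X8D2). Compounds at 30 µM. The record gives no direction; the compounds picked for IC50 retests had high values, so higher reads as stronger inhibition. About 67,000 compounds were tested under these conditions; 0.46% (about 300) showed 50% or more at least once.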

| # | structure | A | B |
|---|---|---|---|
| 1 | `COCCN1CCc2onc(C(c3ccccc3)c3ccccc3)c2C1` | -7.554 | -32.22 |
| 2 | `Cc1cc(C)cc(CN2CCN(C(=O)C3CCC3)[C@@H]3CS(=O)(=O)C[C@@H]32)c1` | -14.71 | -50.46 |
| 3 | `Cc1ccc(-c2nc(CN3CCOC(CN(C)C)C3)co2)cc1` (configuration not stated) | -18.15 | -8.288 |
| 4 | `COCC1c2nnn(C)c2CCN1C(=O)COc1ccccc1OC` (configuration not stated) | 3.236 | -16.66 |
| 5 | `O=C(CCOCC(F)(F)F)N1CCCC(n2ccnc2)C1` (configuration not stated) | 2.977 | -23.22 |
| 6 | `O=C(O)C1(n2ccc(-c3ccco3)n2)CCN(Cc2ccccn2)CC1` | -17.96 | -2.286 |
| 7 | `CCn1c(CN2CCN(C(=O)C3CCC3)CC2)nc2c(F)cccc21` | -22.56 | -13.65 |
| 8 | `CCn1c(Cn2cncn2)nnc1C1CCN(Cc2ccncc2)CC1` | 2.647 | -10.34 |
| 9 | `Cc1cc(C)cc(N2CCN(C(=O)CCN3C[C@@H]4CC[C@H]3C4)CC2=O)c1` | -7.154 | -25.07 |
| 10 | `COCC(=O)N1Cc2nccn2CC(COc2cccnc2)C1` (configuration not stated) | -13.19 | -14.38 |
| 11 | `N#CCCN(Cc1cccnc1)C(=O)c1ccn(-c2ccccc2)n1` | -5.229 | -12.29 |
| 12 | `CCOCc1ncn2c1CN(C(=O)c1ccoc1)CC2` | -4.291 | 0.4652 |
| 13 | `CCCn1nc2c(cc1=O)CN(Cc1nc(C)c3ccccc3n1)CC2` | -14.53 | -11.83 |
| 14 | `O=C(COCC1CC1)N1CCCC1c1nc(-c2ccccc2F)c[nH]1` (configuration not stated) | 14.77 | 6.509 |
| 15 | `COCCn1cc(NC(=O)NC(C)c2ccc(Cl)s2)cn1` (configuration not stated) | 5.15 | -32.83 |
| 16 | `Cc1ccc2c(c1)CN(C(=O)c1ccccc1F)C(CN(C)C)CO2` (configuration not stated) | 12.02 | -48.31 |
| 17 | `CN(Cc1nccs1)C1CCN(c2ncccn2)CC1` | 0.9663 | -21.28 |
| 18 | `C[C@@H]1CN(C2CCN(Cc3nn(C)c4cccc(Cl)c34)CC2)C[C@H](C)O1` | -3.398 | 6.322 |
| 19 | `COc1ccccc1CC(=O)NC(CC(=O)O)c1ccc(C)cc1` (configuration not stated) | 6.246 | 9.679 |
| 20 | `Cc1cnn(CC2CN(CC(=O)NCc3ccc(C)s3)CCO2)c1` (configuration not stated) | 3.08 | -4.009 |
| 21 | `O=S(=O)(Cc1ccccc1)NCC1CCCN(Cc2cccs2)C1` (configuration not stated) | -4.742 | -12.73 |
| 22 | `CC(=O)N1CCN(C(=O)CCNc2snc(Cl)c2C#N)CC1` | -4.327 | 11.75 |
| 23 | `Cc1nc(C)n(C2CCCN(C(=O)COc3ccccc3)C2)n1` (configuration not stated) | -12.24 | -0.8017 |
| 24 | `O=C(COc1coc(CN2CCCCC2)cc1=O)c1ccc(Cl)cc1` | -9.485 | -2.731 |
| 25 | `O=C(COc1ccccc1F)NCC(O)(c1ccccc1)C1CC1` (configuration not stated) | -7.73 | -6.302 |
| 26 | `O=C1N(Cc2cccnc2)CCC12CCCN(c1ncc(F)cn1)C2` (configuration not stated) | -3.377 | 9.654 |
| 27 | `O=C(NC[C@]12COC[C@H]1CN(CC1CCOCC1)C2)c1ccccc1` | 6.433 | 1.58 |
| 28 | `CSCC(C)N(C)S(=O)(=O)c1ccc(Cl)cc1C#N` (configuration not stated) | -12.53 | 3.497 |
| 29 | `Cc1cccc(CN2CCO[C@H]3[C@H](Oc4ccccn4)CC[C@@H]32)n1` | -10.17 | - |
| 30 | `Cn1nc(COCC2CC2)c2c1CCN(Cc1ccco1)C2` | -11.75 | -17.52 |
| 31 | `CC(C)S(=O)(=O)c1nnc(CCNC(=O)OC(C)(C)C)o1` | 9.316 | -32.97 |
| 32 | `O=C(c1ccoc1)N1C[C@@H]2OCCN(c3ncccn3)[C@@H]2C1` | -16.88 | -27.42 |
| 33 | `CC(C)(N)C(=O)N1CCC(c2nccnc2Oc2ccccc2F)CC1` | -15.47 | -20.04 |
| 34 | `COCc1ccccc1CNC(=O)CNc1ccccc1C(C)=O` | -51.37 | -18.36 |
| 35 | `COc1cccc(OCC2CCCN(Cc3ccncc3)C2)c1` (configuration not stated) | -17.29 | -51.97 |
| 36 | `Cc1nn(C2CCCC2)c2nc(C(C)(C)CN3CCN(C)CC3)[nH]c12` | -3.576 | -7.614 |
| 37 | `N#CCSCCCN1CCN(C(=O)c2cccc(Cl)c2)CC1` | -4.811 | 6.973 |
| 38 | `CN(CC(F)(F)F)C(=O)CNC(=O)N1CCC(N2CCCC2)C1` (configuration not stated) | 1.217 | - |
| 39 | `CCCC(=O)N1CCC(c2nn(C)c(=O)n2-c2ccccc2)CC1` | 6.478 | -12.66 |
| 40 | `CCn1nc2c(cc1=O)CN(Cc1nc(-c3ccsc3)no1)CC2` | -3.937 | -1.004 |
| 41 | `CN(C)C(=O)CN1C[C@@H]2CC[C@H](C1)N(Cc1ccccc1OCCO)C2` | -7.336 | -4.798 |
| 42 | `COc1ccccc1CN1C(=O)O[C@@H]2CN(c3nc(C)cc(C)n3)C[C@@H]21` | 4.54 | -5.707 |
| 43 | `Cc1ccc(C)c2c(=O)cc(CN3CC[C@@H](N)[C@H](O)C3)[nH]c12` | 0.5332 | -3.536 |
| 44 | `Cc1ccc2[nH]c(CNC(=O)C3CC4(CCNCC4)CN3C)nc2c1C` (configuration not stated) | -7.145 | -2.463 |
| 45 | `CCc1ccsc1C(=O)N1CCN(CCN2C(=O)CCC2=O)CC1` | -15.49 | -9.814 |
| 46 | `CC(O)C(=O)N1CCN(c2ccccc2Cl)C(=O)C1` (configuration not stated) | 8.392 | -14.37 |
| 47 | `Cc1cc(C(=O)N(C)Cc2nc(-c3ccccn3)no2)c(C)o1` | -12.78 | -44.48 |
| 48 | `Cn1ccc2c(C(=O)N3CCC(C(N)=O)CC3)cccc21` | 14.49 | -13.08 |
| 49 | `CC(c1ccccc1)n1c(SCC(=O)O)nnc1-c1ccccc1Cl` (configuration not stated) | -7.226 | -23.77 |
| 50 | `CC(C)NC(=O)c1nnn(-c2cccc(F)c2)c1C1CC1` | -9.879 | -9.674 |
| 51 | `CN1CCCN(CC(=O)N2CCc3[nH]c(-c4ccccc4)nc3C2)CC1` | -9.873 | -13.33 |
| 52 | `c1cncc(CN2C[C@H]3CCC[C@@H](CNc4cnccn4)[C@H]3C2)c1` | -19.64 | -5.077 |
| 53 | `CNS(=O)(=O)c1ccc(C(=O)NC2CCOc3ccccc32)o1` (configuration not stated) | 2.768 | -32.32 |
| 54 | `Cc1ccc(CN(CC(=O)NCC2CCOC2)c2ccc(F)cc2)o1` (configuration not stated) | -6.845 | -34.03 |
| 55 | `CN(C)C(=O)N1CCN(C(=O)c2ccc(Cl)cc2)CC2(CNC(=O)C2)C1` (configuration not stated) | -5.076 | 10.2 |
| 56 | `Cc1nc(C2CCCN(C(=O)Cn3ccccc3=O)C2)sc1C` (configuration not stated) | -23.01 | 7.173 |
| 57 | `CN1CCN(C(=O)C[C@@H]2COC[C@H]3CN(c4ccncn4)C[C@@H]23)CC1` | -11.83 | 11.5 |
| 58 | `CSc1ncccc1C(=O)N1CCC2(CC1)OCCCC2O` (configuration not stated) | -7.129 | -2.724 |
| 59 | `CN(C(=O)C1CC(=O)N(CCc2ccccc2)C1)c1nccs1` (configuration not stated) | 9.576 | 7.591 |
| 60 | `CN(C)c1ccccc1C(=O)N1C[C@@H](CN2CCOCC2)[C@@H](CO)C1` | -8.852 | -8.741 |
| 61 | `CC(C)c1noc(C(C)N2CCN(Cc3noc(C4CC4)n3)CC2)n1` (configuration not stated) | -2.928 | 2.74 |
| 62 | `COCCNC(=O)C[C@@H]1COC[C@H]2CN(CC3CCOCC3)C[C@@H]12` | -7.782 | - |
| 63 | `Cc1ccnc(N2C[C@@H]3CC[C@H](C2)N(CC2CCC2)C3=O)n1` | -2.653 | -10.25 |
| 64 | `COc1nn(C)cc1C(=O)N1CCC(c2nnc(C(C)C)o2)CC1` | 13.29 | -14 |
| 65 | `c1csc(-c2noc(C3CN(Cc4ccc5c(c4)CCO5)C3)n2)c1` | 0.7872 | -22.74 |
| 66 | `Cc1ccc(C(=O)NCCCS(=O)(=O)c2ccccc2)c(=O)[nH]1` | 4.839 | -27.5 |
| 67 | `CCN1CCN(S(=O)(=O)c2cc(Cl)c(Cl)cc2C)CC1` | -22.81 | 7.723 |

The last 6 entries again:

{"structure": "COCCNC(=O)C[C@@H]1COC[C@H]2CN(CC3CCOCC3)C[C@@H]12", "A": -7.782}
{"structure": "Cc1ccnc(N2C[C@@H]3CC[C@H](C2)N(CC2CCC2)C3=O)n1", "A": -2.653, "B": -10.25}
{"structure": "COc1nn(C)cc1C(=O)N1CCC(c2nnc(C(C)C)o2)CC1", "A": 13.29, "B": -14}
{"structure": "c1csc(-c2noc(C3CN(Cc4ccc5c(c4)CCO5)C3)n2)c1", "A": 0.7872, "B": -22.74}
{"structure": "Cc1ccc(C(=O)NCCCS(=O)(=O)c2ccccc2)c(=O)[nH]1", "A": 4.839, "B": -27.5}
{"structure": "CCN1CCN(S(=O)(=O)c2cc(Cl)c(Cl)cc2C)CC1", "A": -22.81, "B": 7.723}